Values of other authors as cited in US8017575B2 (priority 2004, dated 2011).

Conditions: cats, not altered by reduced flow; cited from earlier work

For `CCN(CC)CC(=O)Nc1c(C)cccc1C` [lidocaine], the extraction ratio is given as 30%.
